Data as given in PubChem BioAssay AID1053208 (Peter MacCallum Cancer Centre, 2014).
Assay: 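Genes whose silencing cuts survival of bone tumour cells only with doxorubicin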 (primary screen). System: mouse osteosarcoma cells, early-passage culture from an engineered mouse model of fibroblastic bone tumour. Reagents: siRNA pool against mouse genes, 40 nM. Duration: about 120 h (48 h before drug, then 72 h with drug). Treatment: doxorubicin 100 nM for 72 h, roughly 30-40% inhibitory dose. Read-out: 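Viability read as ATP luminescence after 72 h of 100 nM doxorubicin or none, duplicate wells averaged, scaled to non-targeting siRNA, then expressed as robust z-scores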. Scale: viability z-score with doxorubicin and doxorubicin viability vs non-targeting: higher = more viable cells under doxorubicin; viability z-score without drug: higher = more viable cells with knock-down alone; z-score of drug to no-drug ratio: higher = less drug sensitisation by knock-down. Hit rule: 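a pool counts as active when its viability z-score with doxorubicin is -2 or below and its z-score without drug lies between -2 and 2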.
The whole screen tested about 17,000 reagents; shown is a part drawn at random. 788 of them (4.7%) were called active. 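Calls rest on z-score classes alone; an extra cut-off of viability at most 70% of control was not applied to them.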 Unmarked entries are inactive. No sequences are given here.

Target gene	combined z-score class	viability z-score with doxorubicin	viability z-score without drug	z-score of drug to no-drug ratio	doxorubicin viability vs non-targeting
Tbr1	no change with or without drug	-0.45	1.69	-1.35	0.9
Xlr3a	no change with or without drug	-0.22	1.18	-0.9	0.92
Pgm3	no change with or without drug	-1.35	0.51	-1.57	0.82
Cyp3a16	no change with or without drug	0.34	0.51	0.11	0.97
Vmn1r8	no change with or without drug	0.34	-0.84	1.12	0.97
Tanc2	no change with or without drug	0	0.84	-0.45	0.94
Atp6v0d1	no change with or without drug	-0.11	-0.17	0.11	0.93
Tub	no change with or without drug	1.35	1.52	0.45	1.06
Cacnb1	no change with or without drug	-1.12	-0.51	-0.79	0.84
Kcnn2	low cell count with doxorubicin only (active)	-2.36	-0.84	-1.91	0.73
Or6b1	no change with or without drug	-0.79	-1.85	0.67	0.87
Chmp3	no change with or without drug	-1.12	-0.17	-1.01	0.84
Mrpl51	no change with or without drug	-1.57	-1.69	-0.45	0.8
Faim2	no change with or without drug	-0.67	-0.51	-0.22	0.88
Kcnc3	no change with or without drug	0.34	0.51	0.11	0.97
Uba6	no change with or without drug	0.22	0.17	0.22	0.96
Mptx1	high cell count without drug only	0.79	2.02	-0.45	1.01
Ephx1	no change with or without drug	0.45	-0.84	1.24	0.98
C1galt1c1	no change with or without drug	-1.12	-1.01	-0.45	0.84
Hoatz	no change with or without drug	0	-0.84	0.67	0.94
Chrd	no change with or without drug	0.11	0.17	0.11	0.95
Txnrd3	no change with or without drug	-1.12	-0.84	-0.56	0.84
Vmn1r58	no change with or without drug	0.34	0.34	0.22	0.97
Or12e1	no change with or without drug	1.12	0.17	1.12	1.04
Polr2m	no change with or without drug	0.11	-0.51	0.56	0.95
Fgf10	no change with or without drug	-1.46	0.34	-1.57	0.81
Ifitm3	no change with or without drug	-0.45	-0.17	-0.22	0.9
Puf60	high cell count without drug only	-0.79	2.19	-1.91	0.87
Sh3bp1	no change with or without drug	0.45	0.17	0.45	0.98
Tnp1	no change with or without drug	-1.8	-0.51	-1.46	0.78
Odf2l	no change with or without drug	0.9	-1.18	2.02	1.02
Arid3a	no change with or without drug	-0.67	0.17	-0.67	0.88
Nsd3	no change with or without drug	0.22	0.51	0	0.96

4 entries from above, set out differently.
{"Target gene":"Or6b1","combined z-score class":"no change with or without drug","viability z-score with doxorubicin":-0.79,"viability z-score without drug":-1.85,"z-score of drug to no-drug ratio":0.67,"doxorubicin viability vs non-targeting":0.87}
{"Target gene":"Chmp3","combined z-score class":"no change with or without drug","viability z-score with doxorubicin":-1.12,"viability z-score without drug":-0.17,"z-score of drug to no-drug ratio":-1.01,"doxorubicin viability vs non-targeting":0.84}
{"Target gene":"Mrpl51","combined z-score class":"no change with or without drug","viability z-score with doxorubicin":-1.57,"viability z-score without drug":-1.69,"z-score of drug to no-drug ratio":-0.45,"doxorubicin viability vs non-targeting":0.8}
{"Target gene":"Faim2","combined z-score class":"no change with or without drug","viability z-score with doxorubicin":-0.67,"viability z-score without drug":-0.51,"z-score of drug to no-drug ratio":-0.22,"doxorubicin viability vs non-targeting":0.88}

The list goes on.
Target gene	combined z-score class	viability z-score with doxorubicin	viability z-score without drug	z-score of drug to no-drug ratio	doxorubicin viability vs non-targeting
Zfp516	no change with or without drug	-0.67	0.67	-1.01	0.88
Or2t1	no change with or without drug	-0.22	-1.18	0.79	0.92
Samhd1	no change with or without drug	-0.22	0.17	-0.22	0.92
Mmachc	no change with or without drug	-1.57	1.01	-2.14	0.8
Cetn4	no change with or without drug	-0.22	0.84	-0.67	0.92
G3bp2	no change with or without drug	-1.12	0.34	-1.24	0.84
Kcnmb1	no change with or without drug	-1.91	-0.84	-1.35	0.77
Eno4	high cell count with doxorubicin only	2.02	0.84	1.57	1.12
Lce1a1	high cell count with doxorubicin only	2.02	1.85	0.9	1.12
Naxe	no change with or without drug	-1.91	0.17	-2.02	0.77
Lat2	no change with or without drug	1.24	1.18	0.56	1.05
Rmp24	no change with or without drug	-0.45	0.17	-0.45	0.9
Pfdn2	no change with or without drug	0.45	0.51	0.22	0.98
Gprasp3	no change with or without drug	0.67	0.84	0.22	1
Arl5c	no change with or without drug	0.9	0.17	0.9	1.02
Trim28	no change with or without drug	-0.79	-0.17	-0.56	0.87
Msl3l2	high cell count without drug only	0.45	2.19	-0.79	0.98
